Values of other authors in patent US20090281111A1 (Fabre-Kramer Pharmaceuticals, Inc., priority 2008, published 2009).

Conditions: CYLERT one form; RITALIN and DEXEDRINE short-term tablets; cited from earlier work

| SMILES | duration of effect (lasts) |
| --- | --- |
| COC(=O)C(c1ccccc1)C1CCCCN1 (centres unmarked) [RITALIN, methylphenidate] | about 3 hours |
| C[C@H](N)Cc1ccccc1 [DEXEDRINE, dextroamphetamine] | about 3 hours |
